Experimental data published in the supplement of paper PMC10849652.
Some of the results follow.

Sequences of proteins named here, by UniProt entry; tags and fusion partners are left off. A change or cut given only in a name is not applied to a line headed by its entry.
UniProt O60502: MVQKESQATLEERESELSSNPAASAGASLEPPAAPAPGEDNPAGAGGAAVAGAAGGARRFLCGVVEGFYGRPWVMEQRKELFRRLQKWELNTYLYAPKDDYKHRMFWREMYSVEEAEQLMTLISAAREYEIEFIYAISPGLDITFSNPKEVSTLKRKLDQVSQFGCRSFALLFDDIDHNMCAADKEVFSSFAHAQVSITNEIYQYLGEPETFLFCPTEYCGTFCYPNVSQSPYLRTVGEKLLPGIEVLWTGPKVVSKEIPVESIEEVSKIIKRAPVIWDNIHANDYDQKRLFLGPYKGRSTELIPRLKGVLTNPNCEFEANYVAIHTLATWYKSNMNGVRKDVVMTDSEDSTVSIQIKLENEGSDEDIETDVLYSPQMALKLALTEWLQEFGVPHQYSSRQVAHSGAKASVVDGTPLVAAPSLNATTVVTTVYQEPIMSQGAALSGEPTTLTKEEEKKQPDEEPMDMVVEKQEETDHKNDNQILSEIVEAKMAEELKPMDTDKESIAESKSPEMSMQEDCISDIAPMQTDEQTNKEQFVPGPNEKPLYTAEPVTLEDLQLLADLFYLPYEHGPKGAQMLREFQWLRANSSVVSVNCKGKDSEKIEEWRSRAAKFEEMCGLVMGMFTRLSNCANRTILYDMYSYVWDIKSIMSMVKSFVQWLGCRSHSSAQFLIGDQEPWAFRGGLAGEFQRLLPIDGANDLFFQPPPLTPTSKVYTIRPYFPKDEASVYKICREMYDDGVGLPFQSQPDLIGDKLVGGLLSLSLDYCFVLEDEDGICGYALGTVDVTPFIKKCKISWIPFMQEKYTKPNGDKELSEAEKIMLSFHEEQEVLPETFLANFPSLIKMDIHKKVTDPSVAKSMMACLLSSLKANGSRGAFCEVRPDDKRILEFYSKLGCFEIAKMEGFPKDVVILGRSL
UniProt P22059, whole entry, looked up: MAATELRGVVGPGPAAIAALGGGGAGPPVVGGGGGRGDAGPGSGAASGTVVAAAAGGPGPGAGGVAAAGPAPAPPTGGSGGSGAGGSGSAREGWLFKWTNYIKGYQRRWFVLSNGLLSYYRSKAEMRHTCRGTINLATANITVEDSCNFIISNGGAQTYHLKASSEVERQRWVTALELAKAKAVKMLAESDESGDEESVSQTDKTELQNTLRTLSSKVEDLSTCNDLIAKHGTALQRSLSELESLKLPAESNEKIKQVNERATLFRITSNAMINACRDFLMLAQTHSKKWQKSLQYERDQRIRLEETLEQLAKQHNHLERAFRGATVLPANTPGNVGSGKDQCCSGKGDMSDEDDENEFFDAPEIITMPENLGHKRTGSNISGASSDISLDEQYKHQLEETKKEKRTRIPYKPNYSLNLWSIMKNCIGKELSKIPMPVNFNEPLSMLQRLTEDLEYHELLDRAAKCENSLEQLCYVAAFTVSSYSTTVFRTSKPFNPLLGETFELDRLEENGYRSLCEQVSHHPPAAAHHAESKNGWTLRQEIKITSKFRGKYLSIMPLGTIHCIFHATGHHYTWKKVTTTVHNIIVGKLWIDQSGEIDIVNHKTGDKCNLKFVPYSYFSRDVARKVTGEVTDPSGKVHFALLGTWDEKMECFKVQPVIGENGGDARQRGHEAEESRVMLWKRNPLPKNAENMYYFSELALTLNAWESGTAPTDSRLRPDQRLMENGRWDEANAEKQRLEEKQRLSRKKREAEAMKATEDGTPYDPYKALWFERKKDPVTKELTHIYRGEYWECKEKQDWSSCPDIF
UniProt Q96G74: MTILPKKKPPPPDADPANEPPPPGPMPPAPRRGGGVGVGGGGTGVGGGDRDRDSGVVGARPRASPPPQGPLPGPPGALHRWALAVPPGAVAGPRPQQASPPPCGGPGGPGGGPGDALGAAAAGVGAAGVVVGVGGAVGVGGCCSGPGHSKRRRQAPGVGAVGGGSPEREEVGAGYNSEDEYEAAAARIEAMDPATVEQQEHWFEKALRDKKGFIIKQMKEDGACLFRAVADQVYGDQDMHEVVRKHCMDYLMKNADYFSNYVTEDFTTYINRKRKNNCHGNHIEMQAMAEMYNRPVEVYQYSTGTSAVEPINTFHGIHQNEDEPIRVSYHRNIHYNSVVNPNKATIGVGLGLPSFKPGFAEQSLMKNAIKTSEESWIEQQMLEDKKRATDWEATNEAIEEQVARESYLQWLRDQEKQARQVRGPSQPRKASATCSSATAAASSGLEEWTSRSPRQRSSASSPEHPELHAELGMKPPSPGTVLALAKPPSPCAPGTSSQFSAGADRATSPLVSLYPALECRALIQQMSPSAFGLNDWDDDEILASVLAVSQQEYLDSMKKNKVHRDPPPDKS
UniProt O95747, whole entry, looked up: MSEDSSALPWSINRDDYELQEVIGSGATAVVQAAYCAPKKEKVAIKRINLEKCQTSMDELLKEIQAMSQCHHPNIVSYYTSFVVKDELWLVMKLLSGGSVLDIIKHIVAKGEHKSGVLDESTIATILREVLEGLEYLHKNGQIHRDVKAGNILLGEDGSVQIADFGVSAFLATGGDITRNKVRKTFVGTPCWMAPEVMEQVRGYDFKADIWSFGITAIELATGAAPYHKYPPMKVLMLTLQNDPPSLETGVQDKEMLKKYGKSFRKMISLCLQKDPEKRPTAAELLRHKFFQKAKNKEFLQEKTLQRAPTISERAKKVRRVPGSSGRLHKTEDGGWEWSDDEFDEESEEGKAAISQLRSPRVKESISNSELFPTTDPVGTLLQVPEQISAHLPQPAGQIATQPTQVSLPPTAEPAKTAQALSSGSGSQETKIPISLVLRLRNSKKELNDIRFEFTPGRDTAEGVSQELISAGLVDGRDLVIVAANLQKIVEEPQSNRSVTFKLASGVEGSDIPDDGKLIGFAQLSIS
UniProt Q8TEM1: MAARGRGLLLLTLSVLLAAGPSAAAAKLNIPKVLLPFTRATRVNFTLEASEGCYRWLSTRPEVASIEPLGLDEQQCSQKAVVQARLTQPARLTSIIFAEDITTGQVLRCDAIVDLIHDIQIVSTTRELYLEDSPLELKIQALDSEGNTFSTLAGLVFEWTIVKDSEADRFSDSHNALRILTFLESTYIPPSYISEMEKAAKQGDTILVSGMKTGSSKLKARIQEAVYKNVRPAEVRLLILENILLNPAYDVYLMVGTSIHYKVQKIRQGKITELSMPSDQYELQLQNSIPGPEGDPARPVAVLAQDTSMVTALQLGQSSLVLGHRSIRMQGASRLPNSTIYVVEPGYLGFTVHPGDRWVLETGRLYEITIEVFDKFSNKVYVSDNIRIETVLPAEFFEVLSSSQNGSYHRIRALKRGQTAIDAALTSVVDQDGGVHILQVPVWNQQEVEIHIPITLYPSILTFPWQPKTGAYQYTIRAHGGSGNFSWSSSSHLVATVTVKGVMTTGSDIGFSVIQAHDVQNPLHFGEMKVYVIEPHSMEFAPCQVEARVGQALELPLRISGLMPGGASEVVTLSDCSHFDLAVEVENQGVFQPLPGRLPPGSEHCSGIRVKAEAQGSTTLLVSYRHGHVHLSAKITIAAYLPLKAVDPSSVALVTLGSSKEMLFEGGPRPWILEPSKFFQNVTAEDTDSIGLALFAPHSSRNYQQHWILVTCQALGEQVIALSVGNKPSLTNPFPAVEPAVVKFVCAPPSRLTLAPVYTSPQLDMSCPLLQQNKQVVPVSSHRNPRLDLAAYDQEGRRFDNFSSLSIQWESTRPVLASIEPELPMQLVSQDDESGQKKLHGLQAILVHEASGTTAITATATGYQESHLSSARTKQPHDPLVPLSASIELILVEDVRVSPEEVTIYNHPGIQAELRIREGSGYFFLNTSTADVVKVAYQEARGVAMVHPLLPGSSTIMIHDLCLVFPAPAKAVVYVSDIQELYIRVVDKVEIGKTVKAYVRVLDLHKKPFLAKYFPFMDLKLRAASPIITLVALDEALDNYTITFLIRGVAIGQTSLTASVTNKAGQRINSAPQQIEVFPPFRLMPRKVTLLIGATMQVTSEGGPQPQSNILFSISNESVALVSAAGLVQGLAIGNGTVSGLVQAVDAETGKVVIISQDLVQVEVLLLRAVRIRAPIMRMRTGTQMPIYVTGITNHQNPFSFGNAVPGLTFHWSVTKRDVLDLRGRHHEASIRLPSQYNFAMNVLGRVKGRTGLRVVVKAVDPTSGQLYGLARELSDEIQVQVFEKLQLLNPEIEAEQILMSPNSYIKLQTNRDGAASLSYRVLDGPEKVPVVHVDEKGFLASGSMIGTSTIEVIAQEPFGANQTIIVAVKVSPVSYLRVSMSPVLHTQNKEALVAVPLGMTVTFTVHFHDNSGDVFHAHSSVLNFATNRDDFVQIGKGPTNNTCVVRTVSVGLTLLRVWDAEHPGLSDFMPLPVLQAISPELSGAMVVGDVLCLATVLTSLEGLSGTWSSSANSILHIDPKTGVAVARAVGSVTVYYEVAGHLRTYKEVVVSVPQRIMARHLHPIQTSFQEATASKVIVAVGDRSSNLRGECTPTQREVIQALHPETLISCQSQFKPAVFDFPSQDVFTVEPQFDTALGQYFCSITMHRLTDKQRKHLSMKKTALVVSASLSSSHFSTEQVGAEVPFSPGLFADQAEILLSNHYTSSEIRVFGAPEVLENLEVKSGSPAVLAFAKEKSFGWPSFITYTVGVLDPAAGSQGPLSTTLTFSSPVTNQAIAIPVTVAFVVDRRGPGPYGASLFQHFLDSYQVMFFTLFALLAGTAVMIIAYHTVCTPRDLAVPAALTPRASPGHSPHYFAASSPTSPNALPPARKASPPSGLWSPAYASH
UniProt Q96GU1: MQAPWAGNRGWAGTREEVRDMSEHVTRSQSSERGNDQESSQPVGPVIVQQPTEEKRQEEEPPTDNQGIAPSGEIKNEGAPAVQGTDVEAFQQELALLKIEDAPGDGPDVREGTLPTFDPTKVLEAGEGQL
UniProt O75459: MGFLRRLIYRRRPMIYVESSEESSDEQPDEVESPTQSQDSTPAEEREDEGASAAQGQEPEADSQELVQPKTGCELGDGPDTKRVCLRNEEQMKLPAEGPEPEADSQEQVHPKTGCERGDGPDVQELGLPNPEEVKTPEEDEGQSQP
UniProt O43929: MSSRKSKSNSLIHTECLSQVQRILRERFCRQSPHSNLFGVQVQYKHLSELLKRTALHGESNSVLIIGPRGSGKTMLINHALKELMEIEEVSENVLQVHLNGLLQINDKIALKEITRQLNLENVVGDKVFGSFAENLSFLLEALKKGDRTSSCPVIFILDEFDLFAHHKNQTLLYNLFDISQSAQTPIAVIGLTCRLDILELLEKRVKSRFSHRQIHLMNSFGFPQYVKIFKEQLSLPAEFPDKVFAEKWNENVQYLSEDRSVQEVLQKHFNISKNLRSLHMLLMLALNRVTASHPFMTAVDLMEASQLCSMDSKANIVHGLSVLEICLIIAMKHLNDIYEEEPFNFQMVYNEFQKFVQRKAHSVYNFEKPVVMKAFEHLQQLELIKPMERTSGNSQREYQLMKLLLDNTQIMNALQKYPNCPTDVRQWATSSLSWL
UniProt Q6GQQ9: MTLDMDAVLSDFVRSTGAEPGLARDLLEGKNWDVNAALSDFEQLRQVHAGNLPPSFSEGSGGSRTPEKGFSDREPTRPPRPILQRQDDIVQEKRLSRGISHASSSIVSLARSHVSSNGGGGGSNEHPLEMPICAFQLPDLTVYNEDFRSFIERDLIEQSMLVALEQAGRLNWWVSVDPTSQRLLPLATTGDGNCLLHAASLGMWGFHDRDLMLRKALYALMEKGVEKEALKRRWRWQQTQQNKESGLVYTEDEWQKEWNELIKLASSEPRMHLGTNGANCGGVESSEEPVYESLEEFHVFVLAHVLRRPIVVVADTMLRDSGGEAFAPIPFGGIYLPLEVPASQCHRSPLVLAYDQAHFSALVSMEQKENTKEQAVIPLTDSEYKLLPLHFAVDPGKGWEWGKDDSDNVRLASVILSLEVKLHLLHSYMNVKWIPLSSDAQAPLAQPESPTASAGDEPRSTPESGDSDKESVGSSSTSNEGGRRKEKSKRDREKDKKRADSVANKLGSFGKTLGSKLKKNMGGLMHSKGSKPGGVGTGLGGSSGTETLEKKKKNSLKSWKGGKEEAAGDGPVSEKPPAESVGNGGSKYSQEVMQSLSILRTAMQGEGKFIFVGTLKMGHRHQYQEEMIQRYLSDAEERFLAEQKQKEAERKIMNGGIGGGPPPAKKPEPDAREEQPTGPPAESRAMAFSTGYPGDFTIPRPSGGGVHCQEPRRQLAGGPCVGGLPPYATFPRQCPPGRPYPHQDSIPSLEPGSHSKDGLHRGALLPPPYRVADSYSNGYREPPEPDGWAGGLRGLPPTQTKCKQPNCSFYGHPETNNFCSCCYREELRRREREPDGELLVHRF

Tests used:
Assay in all cases: log2 fold change, soluble protein after heating vs DMSO (PISA); higher = thermal stabilisation; K562 lysate, 10 uM; active = over 0.2 and 3.5 SD of the protein, either way, in both replicates (recomputed)
[1] = compound: C1=CC=C(C=C1)[C@H](COC2=CC3=C(C=C2)NC(=O)N3)NC(=O)C4=CC=CN(C4=O)CC5=CC(=C(C=C5)F)F
Method in brief: (§1)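 To prepare the extract, K562 pellets were dounce-homogenised in PBS pH 7.4 with 1 mM MgCl2, giving crude material at 1 mg/mL protein. This was treated with 10 μM compound for 30 min, then heated in aliquots for 3 min over 48°C-58°C before pooling and addition of NP-40 to 0.5% at 4°C. Centrifugation at 21,000xg for 90 min left soluble protein in the supernatant, which TMTpro 16plex LC-MS/MS quantified with equalised channel sums. Results are log-two fold changes in thermal stability compared with solvent controls, from duplicates.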

[2] = compound: CC1=C(SC2=C1C(=N[C@H](C3=NN=C(N32)C)CC(=O)N)C4=CC=C(C=C4)Cl)C
Method in brief: as §1

[3] = compound: CC1=C2C(=CC=C1)N=C(N(C2=O)C3=CC=CC=C3C)CN4C=NC5=C(N=CN=C54)N
Method in brief: as §1

[4] = compound: Cc1sc2c(c1C)C(c1ccc(Cl)cc1)=N[C@@H](CC(=O)OC(C)(C)C)c1nnc(C)n1-2
Method in brief: as §1

[5] = compound: c1ccc([C@@H]2C[C@H]2NC2CCNCC2)cc1
Method in brief: as §1

Measured: log2 fold change

OGA (UniProt O60502)
inactive: [1] -0.024 | [2] -0.001 | [3] -0.021 | [4] 0.001 | [5] 0.001

OSBP (UniProt P22059)
inactive: [1] 0.007 | [2] 0.048 | [3] 0.036 | [4] -0.009 | [5] 0.039

OTUD5 isoform 5 (UniProt Q96G74)
inactive: [1] 0.025 | [2] 0.003 | [3] -0.002 | [4] -0.025 | [5] -0.028

OXSR1 (UniProt O95747)
inactive: [1] -0.035 | [2] -0.001 | [3] 0.004 | [4] 0.023 | [5] 0.039

NUP210 (UniProt Q8TEM1)
inactive: [1] -0.101 | [2] 0.07 | [3] 0.016 | [4] 0.04 | [5] 0.028

PAGE5 (UniProt Q96GU1)
inactive: [1] -0.008 | [2] -0.084 | [3] 0.01 | [4] -0.054 | [5] 0.232

PAGE1 (UniProt O75459)
inactive: [1] 0.073 | [2] -0.031 | [3] 0 | [4] -0.054 | [5] -0.002

ORC4 (UniProt O43929)
inactive: [1] -0.047 | [2] 0.027 | [3] 0.05 | [4] 0.023 | [5] 0.044

OTUD7B (UniProt Q6GQQ9)
inactive: [1] -0.004 | [2] 0 | [3] -0.001 | [4] -0.02 | [5] 0.035
